Experimental data from patent US20260109763A1, “ANTI-PILRA ANTIBODIES, USES THEREOF, AND RELATED METHODS AND REAGENTS” (DENALI THERAPEUTICS INC., priority 2021, published 2026).
These are yes or no findings as the source states them, for the method shown. Binding calls can cover weak binding; strength is not graded here.

By UniProt entry, the sequences of proteins in these tests, tags left out. Where a name states a change or a piece, a line headed by the entry shows the natural chain unless it says otherwise.
UniProt Q9UKJ1: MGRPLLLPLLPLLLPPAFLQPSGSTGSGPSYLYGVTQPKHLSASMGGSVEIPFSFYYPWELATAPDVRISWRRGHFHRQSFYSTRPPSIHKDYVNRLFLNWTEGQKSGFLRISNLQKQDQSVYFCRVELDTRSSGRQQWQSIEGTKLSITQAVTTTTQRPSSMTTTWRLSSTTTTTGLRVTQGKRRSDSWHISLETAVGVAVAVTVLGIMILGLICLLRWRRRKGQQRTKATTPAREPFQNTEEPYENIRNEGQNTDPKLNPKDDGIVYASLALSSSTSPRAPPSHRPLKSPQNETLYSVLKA

Target: human PILRA on Wildtype iMicroglia (Homo sapiens) (UniProt Q9UKJ1)
Assay: confocal imaging of cell binding on wild-type iMicroglia, 100 nM biotinylated antibody, Alexa Fluor 488 streptavidin, fold over streptavidin-only wells

B1: Anti-PILRA antibody clone 1 (antibody, V domains shown)
VH: EVQLVESGGGLVQPGRSLRLSCAVSGFTFDDYAMHWVRQAPGKGLEWVSGFSWNSGSIGYPDSVKGRFTISRDNAKNSLYLQMNSLRAEDTAFYYCAKDKSISAAGRFDYWGQGTLVTVSS
VL: DIQMTQSPSSLSASVGDRVTITCQASRRINNYLNWYQQKPGKAPKLLIYDASNLETGVPSRFTGSGSGTDFTLTISSLQPEDIATYYCQQYDNLPLTFGGGTKIKIK
  binding: binds

B2: Anti-PILRA antibody clone 2 (antibody, human IgG1, kappa, L234A L235A, V domains shown)
VH: B1 VH
VL: DIQMTQSPSSLSASVGDRVTITCQASRRINNYLNWYQQKPGKAPKLLIYDASNLETGVPSRFTGSGSGTDFTLTISSLQPEDIATYYCQQYDNLPLTFGGGTKVEIKR
  binding: binds
